Some of the results follow. The calls rarely recur for the same compound in another form.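 Kinases were expressed as nanoluciferase fusions in K562 cells and luminescence was read every 4 h between 2 and 18 h as percent of control, DMSO set to 100% and a positive control to 0%. A time point counts as decreased when the signal drops significantly (2 sigma). The hit call is the authors' own, does not follow from the count of time points alone, and its rule is not shown.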
target: TEC (UniProt P42680); assay: number of time points (of 5) at which kinase-Nluc abundance scored as decreased, DMSO-normalised (count); higher = more persistent destabilization; details: K562; 2-18 h

Sequences of proteins named here, by UniProt entry; tags and fusion partners are left off. A change or cut given only in a name is not applied to a line headed by its entry.
UniProt P42680: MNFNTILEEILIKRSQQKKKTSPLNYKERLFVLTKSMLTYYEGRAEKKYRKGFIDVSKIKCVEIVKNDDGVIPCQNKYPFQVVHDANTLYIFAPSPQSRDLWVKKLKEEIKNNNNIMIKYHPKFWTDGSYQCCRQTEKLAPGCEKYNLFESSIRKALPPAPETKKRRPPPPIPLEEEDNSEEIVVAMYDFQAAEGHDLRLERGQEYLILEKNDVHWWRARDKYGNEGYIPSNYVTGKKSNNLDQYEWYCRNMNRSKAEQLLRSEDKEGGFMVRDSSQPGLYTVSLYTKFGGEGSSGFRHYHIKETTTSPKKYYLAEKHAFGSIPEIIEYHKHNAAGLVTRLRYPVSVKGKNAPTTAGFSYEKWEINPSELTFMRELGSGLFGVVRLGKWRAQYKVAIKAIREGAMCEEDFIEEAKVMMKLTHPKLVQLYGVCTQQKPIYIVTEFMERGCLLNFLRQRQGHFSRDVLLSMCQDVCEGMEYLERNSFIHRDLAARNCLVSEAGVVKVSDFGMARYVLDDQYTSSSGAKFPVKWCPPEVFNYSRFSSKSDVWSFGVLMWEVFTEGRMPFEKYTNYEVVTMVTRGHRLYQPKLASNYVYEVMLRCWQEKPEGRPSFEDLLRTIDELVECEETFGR

Row | SMILES | number of time points
1 | O=C(c1ccc(Nc2nccc(-c3cc4ccccc4s3)n2)cc1)N1CCC(N2CCCC2)CC1 (2.5 µM) | 0
2 | Cc1ccc(-c2nn(C(C)(C)CNC(=O)c3ccncc3)c3ncnc(N)c23)cc1 (2.5 µM) | 0
3 | O=C(O)c1ccc(-c2c[nH]c3ncc(-c4ccccc4)cc23)cc1C1CCCC1 (2.5 µM) | 0
4 | CCOc1nc(Nc2ccc(C(=O)N3CCOCC3)cc2OC)nc2[nH]ccc12 [LRRK2 inhibitor 1] (2.5 µM) | 0
5 | CN(CC(=O)N(Cc1ccc(C2CCCCC2)cc1)c1ccc(C(=O)O)c(O)c1)S(=O)(=O)c1c(F)c(F)c(F)c(F)c1F (2.5 µM) | 0
6 | Nc1nc2cc(-c3ccc4ncc(C(=O)N5CCOCC5)n4c3)ccc2o1 [Serabelisib] (10 µM) | 0
7 | OCCN(CCO)c1ccc(C(c2ccc(Cl)cc2)c2ccc(N(CCO)CCO)cc2)cc1 (10 µM) | 0
8 | O=c1nc(N2CCOCC2)oc2c(-c3cccc4c3sc3ccccc34)cccc12 (10 µM) | 0
9 | c1ccc(-c2nn3c(c2-c2ccnc4cc(OCCN5CCOCC5)ccc24)CCC3)nc1 (10 µM) | 0
10 | O=C(Nc1ccc(Cl)c(Cl)c1)Nc1ccc2nnsc2c1 (10 µM) | 0
11 | N#C/C(=C(/N)Sc1ccc(N)cc1)c1ccccc1C(F)(F)F (10 µM) | 0
12 | O=c1ccoc2cc(O)ccc12 [7-Hydroxy-4H-chromen-4-one] (10 µM) | 0
13 | COc1cc(C(=O)N2CCC(N3CCN(C)CC3)CC2)ccc1Nc1ncc2c(n1)N(C)c1ccccc1C(=O)N2C (10 µM) | 0

Source: the supplement of paper PMC12823440, “Inhibitors supercharge kinase turnover through native proteolytic circuits” (Nature, 2025)
